Strings that start with PEPTIDE1 are HELM notation: dots part the residues, brackets hold end groups and non-standard residues.
How the values were obtained:
[1] = general procedure: Fmoc solid-phase peptide synthesis; Phenethylamine-BAL-PS resin; conditions: whole synthesis, scale 0.100 mmol
[2] = general procedure: Fmoc solid-phase peptide synthesis; 2-chlorotrityl chloride-PS-resin (C-terminal acids); Fmoc Rink-Amide-AM-PS-resin (carboxamides); BAL-AM-PS-resin loaded; conditions: whole synthesis, scale 0.6 mmol

**Q.** With “PEPTIDE1{[XpGlu].R.P.R.L.[dA].H.K.G.P.[XdNle].[XPea]}$$$$V2.0” as the substance, how does the isolated mass [1] read?
**A.** 37.0 mg

**Q.** Which isolated mass [2] does the source give for “PEPTIDE1{[XpGlu].R.P.R.L.[dA].H.K.G.P.[XdNle].[dA].[dF]}$$$$V2.0” here?
**A.** 538.7 mg
